# Reference: the supplement of paper PMC10032668
# Protein sequences, listed by entry. Tags and fused reporters are not part of them.
# EIF3H, O15372, UniProt O15372, whole entry: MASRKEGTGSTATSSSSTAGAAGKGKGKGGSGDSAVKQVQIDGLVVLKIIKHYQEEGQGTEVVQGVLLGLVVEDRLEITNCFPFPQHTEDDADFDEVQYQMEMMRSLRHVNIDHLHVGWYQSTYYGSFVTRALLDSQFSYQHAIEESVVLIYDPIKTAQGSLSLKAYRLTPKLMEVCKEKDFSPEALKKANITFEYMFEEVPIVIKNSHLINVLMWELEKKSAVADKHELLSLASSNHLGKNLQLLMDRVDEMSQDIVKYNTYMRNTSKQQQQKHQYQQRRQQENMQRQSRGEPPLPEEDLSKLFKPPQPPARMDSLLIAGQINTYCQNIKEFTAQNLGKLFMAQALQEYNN
# EIF2S1, P05198, UniProt P05198, whole entry: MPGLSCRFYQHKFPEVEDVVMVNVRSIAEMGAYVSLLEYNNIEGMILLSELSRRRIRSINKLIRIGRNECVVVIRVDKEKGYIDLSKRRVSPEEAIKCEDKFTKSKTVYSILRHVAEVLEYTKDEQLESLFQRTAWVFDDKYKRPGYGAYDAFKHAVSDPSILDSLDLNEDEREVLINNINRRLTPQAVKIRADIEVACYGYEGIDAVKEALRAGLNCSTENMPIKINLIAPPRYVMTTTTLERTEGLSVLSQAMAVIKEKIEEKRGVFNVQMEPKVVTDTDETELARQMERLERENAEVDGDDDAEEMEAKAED
# GNL1, P36915, UniProt P36915, whole entry: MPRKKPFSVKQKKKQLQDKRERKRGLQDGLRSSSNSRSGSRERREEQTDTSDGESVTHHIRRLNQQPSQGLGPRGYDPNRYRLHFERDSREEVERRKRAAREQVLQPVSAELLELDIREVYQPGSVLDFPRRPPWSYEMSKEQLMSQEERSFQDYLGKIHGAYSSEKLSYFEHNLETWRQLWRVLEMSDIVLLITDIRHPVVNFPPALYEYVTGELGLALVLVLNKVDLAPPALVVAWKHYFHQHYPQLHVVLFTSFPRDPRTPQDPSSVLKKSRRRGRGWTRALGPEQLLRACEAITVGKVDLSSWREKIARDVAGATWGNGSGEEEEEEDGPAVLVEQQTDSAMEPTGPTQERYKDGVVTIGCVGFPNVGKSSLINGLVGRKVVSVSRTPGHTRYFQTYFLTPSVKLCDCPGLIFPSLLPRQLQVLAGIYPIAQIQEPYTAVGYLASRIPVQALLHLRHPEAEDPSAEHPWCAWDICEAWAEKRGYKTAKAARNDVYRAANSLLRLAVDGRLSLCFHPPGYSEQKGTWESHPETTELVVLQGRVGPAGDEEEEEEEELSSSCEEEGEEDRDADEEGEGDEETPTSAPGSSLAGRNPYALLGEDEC
# HUWE1, Q7Z6Z7, UniProt Q7Z6Z7, whole entry: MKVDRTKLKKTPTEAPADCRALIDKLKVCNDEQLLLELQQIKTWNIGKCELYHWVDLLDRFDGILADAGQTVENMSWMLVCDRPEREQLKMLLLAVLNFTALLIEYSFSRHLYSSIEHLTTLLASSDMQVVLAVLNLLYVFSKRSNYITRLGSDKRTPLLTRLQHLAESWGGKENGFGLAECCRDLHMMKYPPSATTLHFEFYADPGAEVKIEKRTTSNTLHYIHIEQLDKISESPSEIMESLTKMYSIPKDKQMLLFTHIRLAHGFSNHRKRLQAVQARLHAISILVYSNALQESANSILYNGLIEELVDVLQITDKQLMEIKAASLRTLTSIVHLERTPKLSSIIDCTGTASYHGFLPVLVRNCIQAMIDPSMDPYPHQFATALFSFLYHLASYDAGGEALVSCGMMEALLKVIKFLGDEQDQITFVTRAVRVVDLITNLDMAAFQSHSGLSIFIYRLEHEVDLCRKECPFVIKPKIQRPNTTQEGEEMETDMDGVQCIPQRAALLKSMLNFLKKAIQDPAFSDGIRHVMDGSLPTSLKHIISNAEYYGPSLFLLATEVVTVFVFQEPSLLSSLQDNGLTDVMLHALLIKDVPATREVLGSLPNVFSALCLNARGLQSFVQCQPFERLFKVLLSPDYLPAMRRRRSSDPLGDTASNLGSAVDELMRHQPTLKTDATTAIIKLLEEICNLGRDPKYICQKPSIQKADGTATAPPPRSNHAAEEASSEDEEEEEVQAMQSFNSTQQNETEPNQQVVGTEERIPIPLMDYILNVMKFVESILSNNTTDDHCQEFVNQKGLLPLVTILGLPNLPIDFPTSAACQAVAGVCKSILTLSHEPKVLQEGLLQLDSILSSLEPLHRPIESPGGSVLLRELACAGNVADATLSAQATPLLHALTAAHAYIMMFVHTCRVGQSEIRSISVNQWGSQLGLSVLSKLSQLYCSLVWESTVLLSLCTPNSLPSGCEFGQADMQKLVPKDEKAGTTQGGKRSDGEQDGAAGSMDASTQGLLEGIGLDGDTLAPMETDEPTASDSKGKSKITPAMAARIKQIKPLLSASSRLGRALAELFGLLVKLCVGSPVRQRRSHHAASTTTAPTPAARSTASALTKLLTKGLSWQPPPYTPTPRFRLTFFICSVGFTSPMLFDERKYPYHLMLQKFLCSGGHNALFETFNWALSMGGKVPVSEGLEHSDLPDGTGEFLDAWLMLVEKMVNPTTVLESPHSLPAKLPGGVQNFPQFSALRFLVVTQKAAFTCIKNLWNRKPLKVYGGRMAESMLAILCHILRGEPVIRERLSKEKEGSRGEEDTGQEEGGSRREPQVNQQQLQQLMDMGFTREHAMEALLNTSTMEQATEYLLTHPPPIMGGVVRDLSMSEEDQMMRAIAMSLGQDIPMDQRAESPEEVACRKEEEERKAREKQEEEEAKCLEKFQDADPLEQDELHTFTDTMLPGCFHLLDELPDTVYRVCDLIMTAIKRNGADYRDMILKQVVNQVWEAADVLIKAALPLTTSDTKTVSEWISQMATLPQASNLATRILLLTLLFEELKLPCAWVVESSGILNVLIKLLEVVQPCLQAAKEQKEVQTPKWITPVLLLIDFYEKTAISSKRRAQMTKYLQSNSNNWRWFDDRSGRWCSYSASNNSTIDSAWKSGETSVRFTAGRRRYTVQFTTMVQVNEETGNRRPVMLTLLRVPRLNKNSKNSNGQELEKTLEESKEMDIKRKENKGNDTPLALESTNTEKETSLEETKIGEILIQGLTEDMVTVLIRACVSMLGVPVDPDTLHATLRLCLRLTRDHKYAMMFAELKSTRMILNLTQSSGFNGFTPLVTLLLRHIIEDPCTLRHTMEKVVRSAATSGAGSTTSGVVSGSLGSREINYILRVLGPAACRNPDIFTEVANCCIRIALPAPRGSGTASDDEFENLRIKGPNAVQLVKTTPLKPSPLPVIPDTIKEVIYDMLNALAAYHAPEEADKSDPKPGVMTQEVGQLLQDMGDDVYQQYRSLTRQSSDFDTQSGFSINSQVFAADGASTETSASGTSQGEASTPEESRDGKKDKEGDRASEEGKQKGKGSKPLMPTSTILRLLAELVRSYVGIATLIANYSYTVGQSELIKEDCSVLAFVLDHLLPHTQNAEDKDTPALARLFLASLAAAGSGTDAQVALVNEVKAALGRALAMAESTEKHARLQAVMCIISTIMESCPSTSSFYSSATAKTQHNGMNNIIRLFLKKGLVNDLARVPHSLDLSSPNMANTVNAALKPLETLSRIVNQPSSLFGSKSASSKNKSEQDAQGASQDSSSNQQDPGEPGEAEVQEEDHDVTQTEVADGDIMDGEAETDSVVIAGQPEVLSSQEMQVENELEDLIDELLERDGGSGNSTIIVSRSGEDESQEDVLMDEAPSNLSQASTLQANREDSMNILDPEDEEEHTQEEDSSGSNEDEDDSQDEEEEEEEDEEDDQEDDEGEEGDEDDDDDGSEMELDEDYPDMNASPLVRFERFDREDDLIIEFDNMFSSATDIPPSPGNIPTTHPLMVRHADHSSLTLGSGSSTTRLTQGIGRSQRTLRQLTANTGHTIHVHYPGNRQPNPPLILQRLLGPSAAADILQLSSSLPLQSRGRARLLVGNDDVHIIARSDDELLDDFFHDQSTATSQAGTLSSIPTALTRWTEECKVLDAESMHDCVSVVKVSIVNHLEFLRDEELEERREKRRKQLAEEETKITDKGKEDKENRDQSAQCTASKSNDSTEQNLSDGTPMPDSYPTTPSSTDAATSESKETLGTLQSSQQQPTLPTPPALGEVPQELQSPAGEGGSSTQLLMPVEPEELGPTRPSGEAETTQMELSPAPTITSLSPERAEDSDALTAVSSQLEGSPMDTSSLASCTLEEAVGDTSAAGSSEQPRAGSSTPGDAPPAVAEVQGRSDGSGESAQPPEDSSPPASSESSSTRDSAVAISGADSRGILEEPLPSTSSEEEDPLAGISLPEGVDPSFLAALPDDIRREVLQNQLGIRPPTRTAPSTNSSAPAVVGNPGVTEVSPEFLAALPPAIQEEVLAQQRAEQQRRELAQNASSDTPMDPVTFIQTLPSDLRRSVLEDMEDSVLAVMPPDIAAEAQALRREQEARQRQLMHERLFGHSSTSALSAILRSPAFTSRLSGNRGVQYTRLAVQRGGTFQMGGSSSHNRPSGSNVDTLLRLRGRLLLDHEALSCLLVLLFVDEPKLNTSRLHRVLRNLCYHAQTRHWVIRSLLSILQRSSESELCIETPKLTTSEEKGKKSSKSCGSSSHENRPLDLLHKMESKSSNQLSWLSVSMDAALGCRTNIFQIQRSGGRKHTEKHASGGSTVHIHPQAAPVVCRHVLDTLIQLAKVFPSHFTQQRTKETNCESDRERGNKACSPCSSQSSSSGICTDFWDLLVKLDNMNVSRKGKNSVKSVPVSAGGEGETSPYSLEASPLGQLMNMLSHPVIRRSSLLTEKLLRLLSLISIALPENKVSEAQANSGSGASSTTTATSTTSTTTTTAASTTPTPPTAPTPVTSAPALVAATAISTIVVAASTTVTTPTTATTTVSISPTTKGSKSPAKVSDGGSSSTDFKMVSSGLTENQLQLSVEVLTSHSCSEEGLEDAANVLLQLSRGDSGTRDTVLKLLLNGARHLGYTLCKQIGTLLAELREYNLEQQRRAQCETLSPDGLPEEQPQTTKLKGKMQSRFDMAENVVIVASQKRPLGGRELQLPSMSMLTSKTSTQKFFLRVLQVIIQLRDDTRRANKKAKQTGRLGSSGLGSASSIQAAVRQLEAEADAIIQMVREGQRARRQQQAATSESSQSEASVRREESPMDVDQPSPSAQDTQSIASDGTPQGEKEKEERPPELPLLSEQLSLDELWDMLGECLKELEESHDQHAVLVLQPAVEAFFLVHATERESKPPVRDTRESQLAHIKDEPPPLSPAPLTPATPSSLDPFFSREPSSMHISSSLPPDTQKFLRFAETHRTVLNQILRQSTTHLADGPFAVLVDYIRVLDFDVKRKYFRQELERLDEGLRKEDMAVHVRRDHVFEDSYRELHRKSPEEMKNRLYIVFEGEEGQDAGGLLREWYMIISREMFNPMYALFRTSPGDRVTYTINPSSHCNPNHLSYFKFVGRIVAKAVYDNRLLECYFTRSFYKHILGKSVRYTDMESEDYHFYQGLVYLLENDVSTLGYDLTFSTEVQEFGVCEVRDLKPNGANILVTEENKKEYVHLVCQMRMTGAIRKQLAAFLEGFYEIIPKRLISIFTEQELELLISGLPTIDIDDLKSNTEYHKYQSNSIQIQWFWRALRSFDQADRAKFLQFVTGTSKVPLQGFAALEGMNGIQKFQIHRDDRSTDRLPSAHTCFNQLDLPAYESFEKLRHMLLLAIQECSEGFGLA
# RBM25, P49756, UniProt P49756, whole entry: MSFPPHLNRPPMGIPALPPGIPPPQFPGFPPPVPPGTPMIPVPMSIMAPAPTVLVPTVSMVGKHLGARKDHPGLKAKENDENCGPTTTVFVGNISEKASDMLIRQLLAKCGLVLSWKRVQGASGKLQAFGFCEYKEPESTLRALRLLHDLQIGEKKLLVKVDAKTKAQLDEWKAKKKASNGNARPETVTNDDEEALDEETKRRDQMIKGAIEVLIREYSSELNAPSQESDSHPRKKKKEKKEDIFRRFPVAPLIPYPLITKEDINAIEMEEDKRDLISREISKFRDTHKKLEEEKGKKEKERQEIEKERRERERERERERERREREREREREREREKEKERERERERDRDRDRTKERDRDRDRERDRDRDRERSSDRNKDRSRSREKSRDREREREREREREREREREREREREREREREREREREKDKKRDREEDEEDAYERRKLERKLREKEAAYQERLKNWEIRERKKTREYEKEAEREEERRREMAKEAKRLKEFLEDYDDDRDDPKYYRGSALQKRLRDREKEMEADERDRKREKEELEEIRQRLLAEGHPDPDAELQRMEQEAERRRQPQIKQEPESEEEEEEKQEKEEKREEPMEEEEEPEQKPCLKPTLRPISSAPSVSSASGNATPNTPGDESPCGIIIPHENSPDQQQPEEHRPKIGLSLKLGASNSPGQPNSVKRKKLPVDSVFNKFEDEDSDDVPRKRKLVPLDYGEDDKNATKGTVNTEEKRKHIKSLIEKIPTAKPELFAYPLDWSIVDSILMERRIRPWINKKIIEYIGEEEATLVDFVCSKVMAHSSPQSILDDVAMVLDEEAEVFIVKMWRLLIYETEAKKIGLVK
# Some of the results follow. The list holds hits alone, and they repeat only in part.
# Columns and labels:
# Experiment in all cases: PRISMA enrichment of interactor (LFQ) in peptide spot vs all other peptide spots (log2 fold change); higher = stronger / more specific binding of the interactor to the peptide
# AEBP2, Q6ZN18 = biological target: AEBP2, Q6ZN18
# Procedure: (§1)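 PRISMA: 15-aa overlapping tiles (offset 8 aa) of 60 microproteins, plus SOS1/GLUT1 control peptides, were spot-synthesized on cellulose membranes in triplicate. Membranes were incubated with benzonase-treated HEK293T lysate, and bound proteins were identified by LC-MS/MS with LFQ. Enrichment is the log2 fold change of each protein in one spot versus all other spots. Only interactors passing the significance cutoff are listed.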
# ATP2A2, P16615 = biological target: ATP2A2, P16615
# Procedure: as §1
# BTF3L4, Q96K17 = biological target: BTF3L4, Q96K17
# Procedure: as §1
# CGGBP1, Q9UFW8 = biological target: CGGBP1, Q9UFW8
# Procedure: as §1
# CHMP1A, Q9HD42 = biological target: CHMP1A, Q9HD42
# Procedure: as §1
# COPA, P53621 = biological target: COPA, P53621
# Procedure: as §1
# CTNND1, O60716 = biological target: CTNND1, O60716
# Procedure: as §1
# EIF3H, O15372 = biological target: EIF3H, O15372
# Procedure: as §1
# HLA-B = biological target: HLA-B
# Procedure: as §1
# HTATSF1, O43719 = biological target: HTATSF1, O43719
# Procedure: as §1
# MAP7D3, Q8IWC1 = biological target: MAP7D3, Q8IWC1
# Procedure: as §1
# [1] = substrate: PC, P11498
# Procedure: as §1
# RER1, O15258 = biological target: RER1, O15258
# Procedure: as §1
# UQCRB, P14927 = biological target: UQCRB, P14927
# Procedure: as §1
# AFDN, P55196 = biological target: AFDN, P55196
# Procedure: as §1
# CCDC137, Q6PK04 = biological target: CCDC137, Q6PK04
# Procedure: as §1
# CISD1, Q9NZ45 = biological target: CISD1, Q9NZ45
# Procedure: as §1
# CLNS1A, P54105 = biological target: CLNS1A, P54105
# Procedure: as §1
# COPS4, Q9BT78 = biological target: COPS4, Q9BT78
# Procedure: as §1
# DHX40, Q8IX18 = biological target: DHX40, Q8IX18
# Procedure: as §1
# DRG1, Q9Y295 = biological target: DRG1, Q9Y295
# Procedure: as §1
# EBNA1BP2, Q99848 = biological target: EBNA1BP2, Q99848
# Procedure: as §1
# EIF2S1, P05198 = biological target: EIF2S1, P05198
# Procedure: as §1
# EIF5B, O60841 = biological target: EIF5B, O60841
# Procedure: as §1
# FGA, P02671 = biological target: FGA, P02671
# Procedure: as §1
# GNL1, P36915 = biological target: GNL1, P36915
# Procedure: as §1
# HUWE1, Q7Z6Z7 = biological target: HUWE1, Q7Z6Z7
# Procedure: as §1
# LRRC40, Q9H9A6 = biological target: LRRC40, Q9H9A6
# Procedure: as §1
# LSM14B, Q9BX40 = biological target: LSM14B, Q9BX40
# Procedure: as §1
# MAGT1, Q9H0U3 = biological target: MAGT1, Q9H0U3
# Procedure: as §1
# MAP4, P27816 = biological target: MAP4, P27816
# Procedure: as §1
# MAP7D1, Q3KQU3 = biological target: MAP7D1, Q3KQU3
# Procedure: as §1
# MRTO4, Q9UKD2 = biological target: MRTO4, Q9UKD2
# Procedure: as §1
# NAMPT, P43490 = biological target: NAMPT, P43490
# Procedure: as §1
# NKRF, O15226 = biological target: NKRF, O15226
# Procedure: as §1
# NOL6, Q9H6R4 = biological target: NOL6, Q9H6R4
# Procedure: as §1
# NUMA1, Q14980 = biological target: NUMA1, Q14980
# Procedure: as §1
# PCM1, Q15154 = biological target: PCM1, Q15154
# Procedure: as §1
# PDCD10, Q9BUL8 = biological target: PDCD10, Q9BUL8
# Procedure: as §1
# POLR2G, P62487 = biological target: POLR2G, P62487
# Procedure: as §1
# PSIP1, O75475 = biological target: PSIP1, O75475
# Procedure: as §1
# RBM25, P49756 = biological target: RBM25, P49756
# Procedure: as §1
# SF3A3, Q12874 = biological target: SF3A3, Q12874
# Procedure: as §1
# SH3GLB1, Q9Y371 = biological target: SH3GLB1, Q9Y371
# Procedure: as §1
# SPTY2D1, Q68D10 = biological target: SPTY2D1, Q68D10
# Procedure: as §1
# TCAF1, Q9Y4C2 = biological target: TCAF1, Q9Y4C2
# Procedure: as §1
# VPS25, Q9BRG1 = biological target: VPS25, Q9BRG1
# Procedure: as §1
binder,measurement,setting,value
TCECFSASVCGQRLS [NAV2-AS2_2],PRISMA enrichment of interactor (log2),"AEBP2, Q6ZN18",3.63
same,PRISMA enrichment of interactor (log2),"ATP2A2, P16615",4.34
same,PRISMA enrichment of interactor (log2),"BTF3L4, Q96K17",4.31
same,PRISMA enrichment of interactor (log2),"CGGBP1, Q9UFW8",4.87
same,PRISMA enrichment of interactor (log2),"CHMP1A, Q9HD42",4.37
same,PRISMA enrichment of interactor (log2),"COPA, P53621",6.17
same,PRISMA enrichment of interactor (log2),"CTNND1, O60716",4.71
same,PRISMA enrichment of interactor (log2),"EIF3H, O15372",4.14
same,PRISMA enrichment of interactor (log2),HLA-B,4.17
same,PRISMA enrichment of interactor (log2),"HTATSF1, O43719",6.98
same,PRISMA enrichment of interactor (log2),"MAP7D3, Q8IWC1",4.28
same,PRISMA enrichment of interactor (log2),[1],6.83
same,PRISMA enrichment of interactor (log2),"RER1, O15258",4.88
same,PRISMA enrichment of interactor (log2),"UQCRB, P14927",4.5
QLLRPAPGEAAAAAA [TUG1],PRISMA enrichment of interactor (log2),"AFDN, P55196",4.09
same,PRISMA enrichment of interactor (log2),"CCDC137, Q6PK04",7.71
same,PRISMA enrichment of interactor (log2),"CISD1, Q9NZ45",3.6
same,PRISMA enrichment of interactor (log2),"CLNS1A, P54105",4.52
same,PRISMA enrichment of interactor (log2),"COPS4, Q9BT78",9.7
same,PRISMA enrichment of interactor (log2),"DHX40, Q8IX18",4.83
same,PRISMA enrichment of interactor (log2),"DRG1, Q9Y295",5.99
same,PRISMA enrichment of interactor (log2),"EBNA1BP2, Q99848",4.9
same,PRISMA enrichment of interactor (log2),"EIF2S1, P05198",4.99
same,PRISMA enrichment of interactor (log2),"EIF5B, O60841",4.29
same,PRISMA enrichment of interactor (log2),"FGA, P02671",4.17
same,PRISMA enrichment of interactor (log2),"GNL1, P36915",6.35
same,PRISMA enrichment of interactor (log2),"HUWE1, Q7Z6Z7",4.84
same,PRISMA enrichment of interactor (log2),"LRRC40, Q9H9A6",4.75
same,PRISMA enrichment of interactor (log2),"LSM14B, Q9BX40",4.53
same,PRISMA enrichment of interactor (log2),"MAGT1, Q9H0U3",8.41
same,PRISMA enrichment of interactor (log2),"MAP4, P27816",6.12
same,PRISMA enrichment of interactor (log2),"MAP7D1, Q3KQU3",7.11
same,PRISMA enrichment of interactor (log2),"MRTO4, Q9UKD2",5.16
same,PRISMA enrichment of interactor (log2),"NAMPT, P43490",5.06
same,PRISMA enrichment of interactor (log2),"NKRF, O15226",5.37
same,PRISMA enrichment of interactor (log2),"NOL6, Q9H6R4",4.54
same,PRISMA enrichment of interactor (log2),"NUMA1, Q14980",5.08
same,PRISMA enrichment of interactor (log2),"PCM1, Q15154",5.98
same,PRISMA enrichment of interactor (log2),"PDCD10, Q9BUL8",4.63
same,PRISMA enrichment of interactor (log2),"POLR2G, P62487",4.92
same,PRISMA enrichment of interactor (log2),"PSIP1, O75475",5.67
same,PRISMA enrichment of interactor (log2),"RBM25, P49756",7.17
same,PRISMA enrichment of interactor (log2),"SF3A3, Q12874",4.53
same,PRISMA enrichment of interactor (log2),"SH3GLB1, Q9Y371",3.88
same,PRISMA enrichment of interactor (log2),"SPTY2D1, Q68D10",7.37
same,PRISMA enrichment of interactor (log2),"TCAF1, Q9Y4C2",4.17
same,PRISMA enrichment of interactor (log2),"VPS25, Q9BRG1",4.49

# As a working copy, part of the list above.
binder,measurement,setting,value
QLLRPAPGEAAAAAA [TUG1],PRISMA enrichment of interactor (log2),"NUMA1, Q14980",5.08
same,PRISMA enrichment of interactor (log2),"PCM1, Q15154",5.98
same,PRISMA enrichment of interactor (log2),"PDCD10, Q9BUL8",4.63
same,PRISMA enrichment of interactor (log2),"POLR2G, P62487",4.92
